Data source: PubChem BioAssay AID1159578 (Peter MacCallum Cancer Centre, 2015)
Assay: 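Genome-wide hunt for genes controlling movement of lymphatic endothelial cells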 (primary screen). Cells: human lymphatic endothelial cells. Knock-down reagent: siRNA pool against human genes, 40 nM. Duration: 48 h after transfection. Measured: 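Cells stained with dye and imaged after a scratch; covered wound area and nuclei counted, duplicates averaged, migration set against mock wells and turned into a robust z-score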. Reading the numbers: migration robust z-score: higher = faster migration into the scratch; nuclei per well: higher = more cells in the well. Hit rule: 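Migration changed when robust z exceeds 2 or falls below -2 and mean nuclei number is at least 3300; otherwise not called changed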. Calls: active = migration changed; inactive = no migration change, or too few cells.
The whole screen tested about 18,000 reagents; shown is a part drawn at random. Over the whole deposit, about 1,030 (5.7%) were called active. 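Inactive calls also include pools with fewer than 3300 nuclei, whose migration was not assessed.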 Raw values vary from plate to plate and are shown uncorrected. Unmarked entries are inactive. Not all columns of the deposit are shown. Reagent sequences are not shown.

For PSMD11 (proteasome 26S subunit, non-ATPase 11) the deposit lists migration robust z-score -0.22; migration class with cell-count check migration z between -2 and 2; enough cells; nuclei per well, duplicate mean 6616. CHTOP (chromatin target of PRMT1) gave migration robust z-score -0.8; migration class with cell-count check migration z between -2 and 2; enough cells; nuclei per well, duplicate mean 7499. Silencing of SLC8B1 resulted in: migration robust z-score -0.82; migration class with cell-count check migration z between -2 and 2; enough cells; nuclei per well, duplicate mean 5420. Silencing of PRRT2 (proline rich transmembrane protein 2) resulted in: migration robust z-score 0.78; migration class with cell-count check migration z between -2 and 2; enough cells; nuclei per well, duplicate mean 6726. With knock-down of NKX6-3 (NK6 homeobox 3), the record shows migration robust z-score 0.24; migration class with cell-count check migration z between -2 and 2; enough cells; nuclei per well, duplicate mean 6378. With knock-down of TAF5L (TATA-box binding protein associated factor 5 like), the record shows migration robust z-score -0.96; migration class with cell-count check migration z between -2 and 2; enough cells; nuclei per well, duplicate mean 5852.

Knock-down of NAA60 (N-alpha-acetyltransferase 60, NatF catalytic subunit) gave: migration robust z-score -1.09; migration class with cell-count check migration z between -2 and 2; enough cells; nuclei per well, duplicate mean 4218. LY6G5C (lymphocyte antigen 6 family member G5C) scored migration robust z-score 1.66; migration class with cell-count check migration z between -2 and 2; enough cells; nuclei per well, duplicate mean 6783. With knock-down of GDI2 (GDP dissociation inhibitor 2) the results were migration robust z-score -0.03; migration class with cell-count check migration z between -2 and 2; enough cells; nuclei per well, duplicate mean 6302. For SOSTDC1 (sclerostin domain containing 1), the entry reads migration robust z-score 0.61; migration class with cell-count check migration z between -2 and 2; enough cells; nuclei per well, duplicate mean 6554. Against CYSRT1 (cysteine rich tail 1), the entry reads migration robust z-score 3.34 (active); migration class with cell-count check migration z above 2; enough cells; nuclei per well, duplicate mean 7574.

Copied from the list:
For “migration class with cell-count check”, GDI2 (GDP dissociation inhibitor 2) is entered as migration z between -2 and 2; enough cells
SLC8B1, nuclei per well, duplicate mean → 5420
Under “migration class with cell-count check”, CYSRT1 (cysteine rich tail 1) reads migration z above 2; enough cells (active)

The list goes on:
With knock-down of RPS19BP1 (ribosomal protein S19 binding protein 1) the results were migration robust z-score -1.75; migration class with cell-count check under 3300 nuclei; migration not judged; nuclei per well, duplicate mean 2794. With knock-down of CD82 (CD82 molecule), the screen gave migration robust z-score 0.38; migration class with cell-count check migration z between -2 and 2; enough cells; nuclei per well, duplicate mean 6560. Depletion of DIP2C (DIP2 acetate--CoA ligase C (putative)) resulted in: migration robust z-score 0.15; migration class with cell-count check migration z between -2 and 2; enough cells; nuclei per well, duplicate mean 5122. Depletion of NUSAP1 (nucleolar and spindle associated protein 1) came out at: migration robust z-score -0.02; migration class with cell-count check migration z between -2 and 2; enough cells; nuclei per well, duplicate mean 5898. For CCDC187 (coiled-coil domain containing 187), the entry reads migration robust z-score -0.05; migration class with cell-count check migration z between -2 and 2; enough cells; nuclei per well, duplicate mean 4411. With knock-down of DDX18 (DEAD-box helicase 18), the record shows migration robust z-score 0.7; migration class with cell-count check migration z between -2 and 2; enough cells; nuclei per well, duplicate mean 6610.

Knock-down of DCTN4 (dynactin subunit 4) gave: migration robust z-score -0.6; migration class with cell-count check migration z between -2 and 2; enough cells; nuclei per well, duplicate mean 6291. Against GPR65 (G protein-coupled receptor 65), the values are migration robust z-score 0.05; migration class with cell-count check migration z between -2 and 2; enough cells; nuclei per well, duplicate mean 6702. BCL7A (BAF chromatin remodeling complex subunit BCL7A) gave migration robust z-score -0.16; migration class with cell-count check migration z between -2 and 2; enough cells; nuclei per well, duplicate mean 5251. For OR5B12 (olfactory receptor family 5 subfamily B member 12), the entry reads migration robust z-score -0.5; migration class with cell-count check migration z between -2 and 2; enough cells; nuclei per well, duplicate mean 7166. Knock-down of C1orf35 (chromosome 1 open reading frame 35) came out at: migration robust z-score -0.39; migration class with cell-count check migration z between -2 and 2; enough cells; nuclei per well, duplicate mean 5274. After knock-down of AGBL1 (AGBL carboxypeptidase 1) the results were migration robust z-score 1.26; migration class with cell-count check migration z between -2 and 2; enough cells; nuclei per well, duplicate mean 5445.

Depletion of CYP4F12 (cytochrome P450 family 4 subfamily F member 12) gave: migration robust z-score -2; migration class with cell-count check migration z between -2 and 2; enough cells; nuclei per well, duplicate mean 5152. ACSM5 (acyl-CoA synthetase medium chain family member 5) gave migration robust z-score -0.26; migration class with cell-count check migration z between -2 and 2; enough cells; nuclei per well, duplicate mean 5388. For CACYBP (calcyclin binding protein), the entry reads migration robust z-score -0.17; migration class with cell-count check migration z between -2 and 2; enough cells; nuclei per well, duplicate mean 7093. For ABCA12 (ATP binding cassette subfamily A member 12), the values are migration robust z-score 0.7; migration class with cell-count check migration z between -2 and 2; enough cells; nuclei per well, duplicate mean 5684.
